Data from US20070014721A1 (priority 2005, published 2007).

Assays:
[1] = general procedure: peptide synthesis; Fmoc-Leu-HMPB BHA resin; conditions: whole synthesis
peptide synthesis = conditions: TFA salt

## Ac-PL-NLys(Boc)-L-OH
[1]
  isolated yield: 79%

## N-[(2R)-2-({[4-((2S)-2-{(2S)-2-[2-((2S)-2-[((2S)-1-Acetylpyrrolidin-2-yl)carbonylamino]-N-{4-[(tert-butoxy)carbonylamino]butyl}-4-methylpentanoylamino)-acetylamino]-4-methylpentanoylamino}-4-methylpentanoylamino)phenyl]methoxy}-carbonylamino)-4-methylpentanoylamino]-6-aminohexanamide Trifluoroacetic Acid Salt
Peptide synthesis; late stage modification step
  final HPLC purity: HPLC purity 100%
  step yield: 90%

## N-[(N-{1-[N-(1-{N-[(1R)-1-(N-{(1S)-3-Methyl-1-[N-(2-methylpropyl)carbamoyl]butyl}carbamoyl)-3-methylbutyl]carbamoyl}(1S)-4-(amidinoamino)butyl)carbamoyl](1S)-3-phenylpropyl}carbamoyl)methyl](2S)-2-[((2S)-1-acetylpyrrolidin-2-yl)carbonylamino]-4-methylpentanamide
Peptide synthesis; coupling step
  step yield: 58.9%

## N—[(N-{1-[N-(1-{N-[4-({N-[(1R)-1-(N-Aminocarbamoyl)-3-methylbutyl]carbamoyloxy}methyl)phenyl]carbamoyl}(1S)-3-methylbutyl)carbamoyl](1S)-3-phenylpropyl}carbamoyl)methyl](2S)-2-[((2S)-1-acetylpyrrolidin-2-yl)carbonylamino]
Peptide synthesis; coupling step
  final HPLC purity: HPLC purity 100%
  step yield: 38%

## N—[(N-{1-[N-(1-{N-[4-({N-[(1R)-1-(N-Aminocarbamoyl)-3-methylbutyl]carbamoyloxy}methyl)phenyl]carbamoyl}(1S)-4-[(imino{[(2,2,5,7,8-pentamethylchroman-6-yl)sulfonyl]amino}methyl)amino]butyl)carbamoyl](1S)-3-phenylpropyl}carbamoyl)methyl]
Peptide synthesis; coupling step
  final HPLC purity: HPLC purity 100%
  step yield: 23%
